PubChem BioAssay AID743121 – NCATS, 2013
The whole screen tested about 26,000 reagents; shown is a random part of them. Of all reagents, 167 (0.63%) were called active. 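Calls are per gene from RSA p-values that are not deposited; an individual active-marked siRNA can sensitise only weakly.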 A number with no mark means an inactive call. Reagents against one gene are numbered here. Further read-outs or replicates are left out here.

Test: 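Genes whose silencing strengthens cell killing by camptothecin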 (primary screen)
Cells: MDA-MB-231 cells, a human breast cancer line
Knock-down reagent: single siRNA against human genes, 20 nM siRNA (0.8 pmol per well)
Duration: 120 h (drug added 48 h after transfection, read 72 h later)
Conditions: camptothecin 20 nM (about EC30) for 72 h; vehicle 0.1% DMSO in parallel plates
Read-out: 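CellTiter-Glo ATP signal, scaled to control siRNA as percent viability; sensitisation given as log2 of untreated divided by camptothecin-treated viability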
Scale: log2 vehicle/camptothecin viability: higher = stronger sensitisation to camptothecin
Call rule: 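Each gene scored by redundant siRNA activity (RSA) over its individual siRNA ratios; a gene is called active at p < 0.001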

After knock-down of UNC5D (GeneID 137970) #1, the screen gave log2 vehicle/camptothecin viability -0.0782.
With knock-down of UNC5D (GeneID 137970) #2, the record shows log2 vehicle/camptothecin viability -0.054.
After knock-down of UNC5D (GeneID 137970) #3 the results were log2 vehicle/camptothecin viability -0.417.
After knock-down of TESK2 (GeneID 10420) #1, the screen gave log2 vehicle/camptothecin viability -0.6.
Knock-down of TESK2 (GeneID 10420) #2 came out at: log2 vehicle/camptothecin viability -0.0439.
TESK2 (GeneID 10420) #3 showed log2 vehicle/camptothecin viability -0.415.
TESK2 (GeneID 10420) #4 gave log2 vehicle/camptothecin viability -0.402.
Against GABRG2 (GeneID 2566) #1, the values are log2 vehicle/camptothecin viability -0.326.
With knock-down of GABRG2 (GeneID 2566) #2, the record shows log2 vehicle/camptothecin viability 0.0393.
After knock-down of GABRG2 (GeneID 2566) #3 the results were log2 vehicle/camptothecin viability -0.366.
GABRG2 (GeneID 2566) #4 gave log2 vehicle/camptothecin viability 0.0697.
Against MID2 (GeneID 11043) #1, the entry reads log2 vehicle/camptothecin viability -0.324.
Silencing of MID2 (GeneID 11043) #2 gave: log2 vehicle/camptothecin viability -0.888.
MID2 (GeneID 11043) #3 gave log2 vehicle/camptothecin viability -0.246.
For MID2 (GeneID 11043) #4, the values are log2 vehicle/camptothecin viability 0.0764.
SLC7A11 (GeneID 23657) #1 scored log2 vehicle/camptothecin viability 0.0874.
Against SLC7A11 (GeneID 23657) #2, the values are log2 vehicle/camptothecin viability 0.262.
SLC7A11 (GeneID 23657) #3 showed log2 vehicle/camptothecin viability -0.119.
Knock-down of ASPRV1 (GeneID 151516) #1 gave: log2 vehicle/camptothecin viability -0.166.
Depletion of ASPRV1 (GeneID 151516) #2 gave: log2 vehicle/camptothecin viability -0.579.
With knock-down of ASPRV1 (GeneID 151516) #3, the record shows log2 vehicle/camptothecin viability 0.00169.
For ASPRV1 (GeneID 151516) #4, the values are log2 vehicle/camptothecin viability -0.138.
Against LANCL2 (GeneID 55915) #1 the deposit lists log2 vehicle/camptothecin viability -0.0821.
Knock-down of LANCL2 (GeneID 55915) #2 gave: log2 vehicle/camptothecin viability 0.808.
With knock-down of LANCL2 (GeneID 55915) #3, the record shows log2 vehicle/camptothecin viability 0.00529.
With knock-down of LANCL2 (GeneID 55915) #4, the record shows log2 vehicle/camptothecin viability 0.172.
For TXK (GeneID 7294) #1, the entry reads log2 vehicle/camptothecin viability -0.166.
Silencing of TXK (GeneID 7294) #2 came out at: log2 vehicle/camptothecin viability 0.0811.
Against TXK (GeneID 7294) #3 the deposit lists log2 vehicle/camptothecin viability -0.346.
TXK (GeneID 7294) #4 showed log2 vehicle/camptothecin viability -0.609.
TRIM10 (GeneID 10107) #1 showed log2 vehicle/camptothecin viability 0.128.
For TRIM10 (GeneID 10107) #2 the deposit lists log2 vehicle/camptothecin viability -0.553.
Against TRIM10 (GeneID 10107) #3, the values are log2 vehicle/camptothecin viability -0.0821.
With knock-down of TRIM10 (GeneID 10107) #4 the results were log2 vehicle/camptothecin viability 0.085.
Against REN (GeneID 5972) #1 the deposit lists log2 vehicle/camptothecin viability -0.16.
After knock-down of REN (GeneID 5972) #2 the results were log2 vehicle/camptothecin viability 0.216.
REN (GeneID 5972) #3 gave log2 vehicle/camptothecin viability -0.364.
Depletion of REN (GeneID 5972) #4 gave: log2 vehicle/camptothecin viability 0.0593.
